Laboratory results taken from the supplement of paper PMC10849652.
The other results are listed elsewhere or left out.

Sequences of proteins named here, by UniProt entry; tags and fusion partners are left off. A change or cut given only in a name is not applied to a line headed by its entry.
UniProt O14933: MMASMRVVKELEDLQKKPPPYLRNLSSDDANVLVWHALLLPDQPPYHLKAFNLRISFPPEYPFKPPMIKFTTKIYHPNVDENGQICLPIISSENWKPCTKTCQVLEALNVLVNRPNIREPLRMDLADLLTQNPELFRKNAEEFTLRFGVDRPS
UBE2L5, A0A1B0GUS4, UniProt A0A1B0GUS4, whole entry, looked up: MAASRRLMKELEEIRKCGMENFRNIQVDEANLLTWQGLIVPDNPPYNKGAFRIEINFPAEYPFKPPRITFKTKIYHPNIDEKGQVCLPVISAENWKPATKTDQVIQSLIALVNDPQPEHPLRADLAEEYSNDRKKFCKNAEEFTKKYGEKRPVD
UniProt Q9H0U9: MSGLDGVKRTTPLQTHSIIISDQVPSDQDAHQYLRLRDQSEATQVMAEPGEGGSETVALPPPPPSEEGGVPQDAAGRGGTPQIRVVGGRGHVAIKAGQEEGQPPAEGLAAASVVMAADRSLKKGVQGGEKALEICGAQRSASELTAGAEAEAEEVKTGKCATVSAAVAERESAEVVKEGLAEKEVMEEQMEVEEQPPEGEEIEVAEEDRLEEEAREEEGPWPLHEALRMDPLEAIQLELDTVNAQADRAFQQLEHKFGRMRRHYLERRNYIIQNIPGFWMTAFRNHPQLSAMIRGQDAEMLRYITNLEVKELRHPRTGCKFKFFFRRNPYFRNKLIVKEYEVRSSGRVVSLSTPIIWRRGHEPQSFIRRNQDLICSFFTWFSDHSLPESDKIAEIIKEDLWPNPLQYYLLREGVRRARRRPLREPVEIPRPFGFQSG
UniProt Q96FV3: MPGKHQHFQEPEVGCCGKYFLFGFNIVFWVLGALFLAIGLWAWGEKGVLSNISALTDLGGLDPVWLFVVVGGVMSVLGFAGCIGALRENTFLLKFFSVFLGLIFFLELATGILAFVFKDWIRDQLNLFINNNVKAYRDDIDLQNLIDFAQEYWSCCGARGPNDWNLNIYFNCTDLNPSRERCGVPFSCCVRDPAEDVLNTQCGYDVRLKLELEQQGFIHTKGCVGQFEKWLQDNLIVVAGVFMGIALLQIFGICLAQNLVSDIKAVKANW
UniProt Q96RT8, whole entry, looked up: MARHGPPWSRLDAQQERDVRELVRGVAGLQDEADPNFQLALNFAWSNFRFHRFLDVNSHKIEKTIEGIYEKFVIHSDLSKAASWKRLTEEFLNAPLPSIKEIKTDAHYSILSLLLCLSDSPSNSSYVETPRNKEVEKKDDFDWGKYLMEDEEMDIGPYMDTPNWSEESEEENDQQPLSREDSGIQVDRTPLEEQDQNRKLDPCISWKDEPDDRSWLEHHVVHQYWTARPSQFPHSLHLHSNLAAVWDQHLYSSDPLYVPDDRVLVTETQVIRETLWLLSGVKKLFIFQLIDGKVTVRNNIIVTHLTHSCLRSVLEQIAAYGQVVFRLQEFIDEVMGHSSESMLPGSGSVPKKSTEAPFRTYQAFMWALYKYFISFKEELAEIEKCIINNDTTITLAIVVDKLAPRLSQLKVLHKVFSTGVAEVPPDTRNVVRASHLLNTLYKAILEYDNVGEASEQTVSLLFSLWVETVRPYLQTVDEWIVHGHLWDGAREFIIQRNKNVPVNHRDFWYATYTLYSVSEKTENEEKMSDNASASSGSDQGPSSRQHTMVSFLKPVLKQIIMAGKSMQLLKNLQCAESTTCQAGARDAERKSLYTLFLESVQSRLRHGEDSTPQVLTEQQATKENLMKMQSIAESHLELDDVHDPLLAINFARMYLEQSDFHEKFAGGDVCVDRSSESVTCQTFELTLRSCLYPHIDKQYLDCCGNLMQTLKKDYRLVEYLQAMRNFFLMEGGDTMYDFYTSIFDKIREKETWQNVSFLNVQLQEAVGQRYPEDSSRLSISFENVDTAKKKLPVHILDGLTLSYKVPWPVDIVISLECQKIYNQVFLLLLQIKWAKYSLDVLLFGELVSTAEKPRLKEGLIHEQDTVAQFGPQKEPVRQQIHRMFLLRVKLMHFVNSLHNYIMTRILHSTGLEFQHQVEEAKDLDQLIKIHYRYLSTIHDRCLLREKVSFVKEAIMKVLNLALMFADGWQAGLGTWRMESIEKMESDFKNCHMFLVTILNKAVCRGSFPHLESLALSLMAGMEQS
UniProt Q86VQ3: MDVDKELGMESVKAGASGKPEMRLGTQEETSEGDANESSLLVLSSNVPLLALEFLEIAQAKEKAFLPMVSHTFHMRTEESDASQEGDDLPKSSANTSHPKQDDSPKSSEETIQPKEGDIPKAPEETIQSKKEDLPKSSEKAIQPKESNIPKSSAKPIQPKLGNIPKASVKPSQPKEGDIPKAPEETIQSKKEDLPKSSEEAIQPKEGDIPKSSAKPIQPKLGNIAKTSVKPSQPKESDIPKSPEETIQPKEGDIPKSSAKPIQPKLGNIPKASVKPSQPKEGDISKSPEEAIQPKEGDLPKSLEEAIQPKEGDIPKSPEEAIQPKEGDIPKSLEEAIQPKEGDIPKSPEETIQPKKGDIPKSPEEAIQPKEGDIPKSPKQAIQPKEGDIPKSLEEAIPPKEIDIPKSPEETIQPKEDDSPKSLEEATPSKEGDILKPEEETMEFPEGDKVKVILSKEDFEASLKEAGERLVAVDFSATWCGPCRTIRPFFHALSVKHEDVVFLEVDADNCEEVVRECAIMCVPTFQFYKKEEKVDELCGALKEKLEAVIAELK
UniProt Q5VYS8: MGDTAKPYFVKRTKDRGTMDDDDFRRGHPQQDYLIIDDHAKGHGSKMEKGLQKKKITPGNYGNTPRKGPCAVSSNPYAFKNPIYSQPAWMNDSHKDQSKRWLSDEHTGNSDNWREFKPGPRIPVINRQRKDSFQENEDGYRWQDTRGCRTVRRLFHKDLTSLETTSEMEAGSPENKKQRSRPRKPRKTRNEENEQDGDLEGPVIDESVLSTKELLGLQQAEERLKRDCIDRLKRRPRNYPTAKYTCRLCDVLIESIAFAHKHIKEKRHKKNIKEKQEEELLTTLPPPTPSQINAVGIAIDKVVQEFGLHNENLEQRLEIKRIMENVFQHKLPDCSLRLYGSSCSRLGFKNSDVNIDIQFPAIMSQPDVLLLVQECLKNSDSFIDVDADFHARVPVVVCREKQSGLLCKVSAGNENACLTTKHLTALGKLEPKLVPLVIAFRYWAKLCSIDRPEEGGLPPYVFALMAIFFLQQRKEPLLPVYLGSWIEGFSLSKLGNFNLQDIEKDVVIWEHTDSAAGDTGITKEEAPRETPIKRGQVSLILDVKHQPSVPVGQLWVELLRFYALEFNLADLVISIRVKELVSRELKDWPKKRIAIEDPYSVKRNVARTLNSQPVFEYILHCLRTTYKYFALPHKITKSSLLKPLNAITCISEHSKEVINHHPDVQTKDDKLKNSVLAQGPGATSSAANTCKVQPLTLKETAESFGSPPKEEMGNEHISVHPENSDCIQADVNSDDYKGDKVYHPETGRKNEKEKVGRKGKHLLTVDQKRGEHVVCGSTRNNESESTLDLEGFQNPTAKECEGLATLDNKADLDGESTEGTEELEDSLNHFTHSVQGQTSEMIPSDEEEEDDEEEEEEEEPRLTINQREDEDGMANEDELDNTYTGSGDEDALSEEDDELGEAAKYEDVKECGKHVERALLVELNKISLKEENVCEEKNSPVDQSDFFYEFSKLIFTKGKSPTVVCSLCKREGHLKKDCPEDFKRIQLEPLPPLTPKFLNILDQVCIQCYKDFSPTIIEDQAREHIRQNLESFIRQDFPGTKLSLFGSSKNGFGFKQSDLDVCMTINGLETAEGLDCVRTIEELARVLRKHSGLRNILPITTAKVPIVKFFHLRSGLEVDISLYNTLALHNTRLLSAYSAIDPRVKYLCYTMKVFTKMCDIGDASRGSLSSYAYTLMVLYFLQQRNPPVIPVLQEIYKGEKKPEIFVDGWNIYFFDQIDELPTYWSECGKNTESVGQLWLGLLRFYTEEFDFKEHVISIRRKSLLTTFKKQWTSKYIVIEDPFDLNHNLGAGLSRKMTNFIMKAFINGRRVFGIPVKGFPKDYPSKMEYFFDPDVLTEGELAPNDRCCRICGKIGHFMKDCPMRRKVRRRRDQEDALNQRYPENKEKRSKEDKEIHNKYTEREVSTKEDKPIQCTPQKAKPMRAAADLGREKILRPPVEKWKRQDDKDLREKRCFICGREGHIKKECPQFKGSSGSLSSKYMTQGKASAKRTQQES
UniProt Q8WUA8: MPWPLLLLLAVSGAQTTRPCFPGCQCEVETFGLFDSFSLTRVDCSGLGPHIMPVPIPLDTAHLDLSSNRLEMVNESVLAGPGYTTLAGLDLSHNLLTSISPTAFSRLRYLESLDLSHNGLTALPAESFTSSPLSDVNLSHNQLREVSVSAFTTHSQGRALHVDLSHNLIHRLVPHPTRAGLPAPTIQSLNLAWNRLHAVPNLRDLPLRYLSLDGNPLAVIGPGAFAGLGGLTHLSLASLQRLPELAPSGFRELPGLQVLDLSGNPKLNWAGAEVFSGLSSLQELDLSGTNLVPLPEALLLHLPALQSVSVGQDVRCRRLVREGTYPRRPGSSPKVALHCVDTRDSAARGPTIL
UniProt Q3ZCM7, whole entry, looked up: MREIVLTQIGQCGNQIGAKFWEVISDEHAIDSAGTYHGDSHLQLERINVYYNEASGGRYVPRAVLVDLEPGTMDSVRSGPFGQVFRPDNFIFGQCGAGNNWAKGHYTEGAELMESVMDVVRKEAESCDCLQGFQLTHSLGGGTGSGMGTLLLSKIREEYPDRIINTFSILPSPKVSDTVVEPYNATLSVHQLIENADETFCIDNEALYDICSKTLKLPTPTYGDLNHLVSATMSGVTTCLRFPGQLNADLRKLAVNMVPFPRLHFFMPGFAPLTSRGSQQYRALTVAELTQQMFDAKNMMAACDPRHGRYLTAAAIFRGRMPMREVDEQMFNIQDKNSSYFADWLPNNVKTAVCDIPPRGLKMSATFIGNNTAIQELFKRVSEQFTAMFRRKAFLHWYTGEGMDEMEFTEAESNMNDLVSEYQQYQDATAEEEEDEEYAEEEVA
UniProt O95801: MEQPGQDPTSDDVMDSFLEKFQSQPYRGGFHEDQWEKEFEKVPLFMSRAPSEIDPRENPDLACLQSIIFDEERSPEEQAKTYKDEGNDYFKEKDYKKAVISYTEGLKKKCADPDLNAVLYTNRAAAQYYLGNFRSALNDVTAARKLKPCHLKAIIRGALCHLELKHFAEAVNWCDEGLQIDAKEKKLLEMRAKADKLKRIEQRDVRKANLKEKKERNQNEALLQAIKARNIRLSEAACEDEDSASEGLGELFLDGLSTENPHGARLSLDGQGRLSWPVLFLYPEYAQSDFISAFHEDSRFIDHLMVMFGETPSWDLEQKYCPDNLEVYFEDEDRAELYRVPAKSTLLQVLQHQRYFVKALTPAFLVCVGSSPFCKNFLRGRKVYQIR
UniProt Q7Z3V4: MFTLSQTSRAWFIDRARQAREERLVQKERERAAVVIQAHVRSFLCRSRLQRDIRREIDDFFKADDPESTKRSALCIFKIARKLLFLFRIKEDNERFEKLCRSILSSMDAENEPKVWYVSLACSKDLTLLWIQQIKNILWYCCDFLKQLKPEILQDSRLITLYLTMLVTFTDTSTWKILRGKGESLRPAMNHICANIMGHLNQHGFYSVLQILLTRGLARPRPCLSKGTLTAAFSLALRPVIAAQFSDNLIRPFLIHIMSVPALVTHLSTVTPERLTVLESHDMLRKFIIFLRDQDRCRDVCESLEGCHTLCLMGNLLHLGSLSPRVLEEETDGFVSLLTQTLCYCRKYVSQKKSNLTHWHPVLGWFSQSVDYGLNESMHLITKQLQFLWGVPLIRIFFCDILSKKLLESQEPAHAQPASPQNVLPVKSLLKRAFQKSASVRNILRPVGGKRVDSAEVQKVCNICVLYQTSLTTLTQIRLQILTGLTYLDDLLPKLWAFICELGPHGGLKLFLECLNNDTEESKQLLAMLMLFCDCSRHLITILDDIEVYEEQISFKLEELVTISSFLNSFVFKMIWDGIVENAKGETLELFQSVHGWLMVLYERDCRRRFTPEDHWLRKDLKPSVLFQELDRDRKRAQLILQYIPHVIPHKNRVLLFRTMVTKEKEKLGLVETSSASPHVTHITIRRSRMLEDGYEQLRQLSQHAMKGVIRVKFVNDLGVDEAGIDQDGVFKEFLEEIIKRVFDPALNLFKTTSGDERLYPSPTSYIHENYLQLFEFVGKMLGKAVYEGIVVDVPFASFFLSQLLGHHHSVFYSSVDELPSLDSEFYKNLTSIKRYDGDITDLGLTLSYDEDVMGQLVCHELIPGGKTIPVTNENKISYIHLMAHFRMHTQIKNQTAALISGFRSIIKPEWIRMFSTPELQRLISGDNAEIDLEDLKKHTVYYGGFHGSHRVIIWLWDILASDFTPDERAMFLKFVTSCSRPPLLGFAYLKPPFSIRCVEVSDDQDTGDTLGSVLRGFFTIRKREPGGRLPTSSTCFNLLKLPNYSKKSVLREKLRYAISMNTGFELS
UniProt O75896: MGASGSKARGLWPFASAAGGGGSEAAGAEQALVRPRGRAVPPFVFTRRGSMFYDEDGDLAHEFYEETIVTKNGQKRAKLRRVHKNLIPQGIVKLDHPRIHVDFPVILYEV
UniProt Q9NX01: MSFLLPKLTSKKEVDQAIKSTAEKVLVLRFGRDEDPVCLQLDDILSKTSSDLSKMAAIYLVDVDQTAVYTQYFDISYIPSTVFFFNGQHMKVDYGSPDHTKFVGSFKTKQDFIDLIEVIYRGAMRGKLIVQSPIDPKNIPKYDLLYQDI

Columns and labels:
Assay in all cases: log2 fold change, soluble protein after heating vs DMSO (PISA); higher = thermal stabilisation; K562 cells, 10 uM, 30 min; active = over 0.2 and 3.5 SD of the protein, either way, in both replicates (recomputed)
[1] = compound: CNC(=O)C1=CC=CC=C1NC2=NC(=NC=C2Cl)NC3=C(C=C(C=C3)N4CCOCC4)OC
Procedure, shortened: (§1)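 Quantification of soluble protein used TMTpro 16plex LC-MS/MS, with channel sums equalised. Samples were the supernatant after 21,000xg for 90 min of pooled aliquots from K562 cells (2×10^6 cells/mL) treated with 10 μM compound for 30 min, heated for 3 min over 48°C-58°C, and extracted in PBS with 0.5% NP-40 at 4°C. Values, from duplicates, describe thermal stability against control samples on a log2 fold-change scale.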

[2] = compound: CN1CC[C@H](c2c(O)cc(O)c3c(=O)cc(-c4ccccc4Cl)oc23)[C@H](O)C1 [alvocidib]
Procedure, shortened: as §1

[3] = compound: CN1CCc2c(c3ccccc3n2Cc2ccc(C(=O)NO)cc2)C1 [Tubastatin A]
Procedure, shortened: as §1

[4] = compound: CNC(=O)c1ccc(Nc2ncc(C(F)(F)F)c(NCc3nccnc3N(C)S(C)(=O)=O)n2)cc1 [defactinib]
Procedure, shortened: as §1

[5] = compound: CNCc1ccc(-c2[nH]c3cc(F)cc4c3c2CCNC4=O)cc1 [rucaparib]
Procedure, shortened: as §1

[6] = compound: COC(=O)N[C@@H](C)CNc1nccc(-c2cn(C(C)C)nc2-c2cc(Cl)cc(NS(C)(=O)=O)c2F)n1 [encorafenib]
Procedure, shortened: as §1

[7] = compound: COC(=O)[C@H](CCSC)NC(=O)C1=C(C=C(C=C1)NC[C@H](CS)N)C2=CC=CC=C2
Procedure, shortened: as §1

[8] = compound: CN1CCN(CCOc2cc(OC3CCOCC3)c3c(Nc4c(Cl)ccc5c4OCO5)ncnc3c2)CC1 [saracatinib]
Procedure, shortened: as §1

[9] = compound: CN1CCN(c2nc(C3=C(c4c[nH]c5ccccc45)C(=O)NC3=O)c3ccccc3n2)CC1 [sotrastaurin]
Procedure, shortened: as §1

[10] = compound: CNc1nc(-c2ccc3c(N)n[nH]c3c2)cc(N2C[C@@H](C(=O)NC3CCCCC3)CC[C@H]2C)n1
Procedure, shortened: as §1

Measured: log2 fold change

UBE2L6 (UniProt O14933)
inactive: [1] 0.01

UBE2L5, A0A1B0GUS4
inactive: [2] 0.126 | [3] 0.076 | [1] -0.019 | [4] -0.085 | [5] 0.088 | [6] 0.068 | [7] -0.135

UBE2E1 (UniProt P51965)
inactive: [8] 0.161 | [9] -0.13 | [3] 0.03 | [1] 0.261 | [4] 0.11 | [10] -0.05 | [7] -0.233

TTC37 (UniProt Q6PGP7)
inactive: [4] -0.08 | [5] 0.116 | [6] -0.132 | [7] 0.024

UBAP2L (UniProt F8W726)
inactive: [3] -0.039 | [1] -0.05 | [5] -0.006 | [6] -0.021

TSPYL1 (UniProt Q9H0U9)
inactive: [2] -0.078 | [1] 0.122

UBA52 (UniProt P62987)
inactive: [9] -0.029 | [3] -0.004 | [1] -0.008 | [4] 0.221 | [5] 0.421 | [6] 0.152 | [7] 0.08

TSPAN17 isoform 4 (UniProt Q96FV3)
inactive: [9] 0.125 | [1] -0.176

TYK2 (UniProt P29597)
inactive: [8] -0.285 | [9] 0.122 | [10] 0.222

TYRO3 (UniProt Q06418)
inactive: [9] 0.007

TTC26
inactive: [3] -0.033 | [4] 0.265 | [7] 0.144

TYW5 (UniProt A2RUC4)
inactive: [3] -0.219 | [1] -0.201 | [4] 0.073 | [7] 0.194

TSPYL4 (UniProt Q9UJ04)
inactive: [4] -0.12 | [7] -0.01

TSPAN4 (UniProt O14817)
inactive: [3] -0.047 | [1] -0.207 | [5] -0.234 | [6] 0.081

TVP23C (UniProt Q96ET8)
inactive: [8] 0.025 | [3] 0 | [1] 0.042 | [4] 0.039 | [5] -0.205 | [10] 0.015 | [6] 0.129 | [7] 0.067

TUBGCP5 (UniProt Q96RT8)
inactive: [2] 0.004 | [3] -0.076 | [1] 0.118 | [5] 0.029 | [6] -0.054

TUBA4A (UniProt C9JJQ8)
inactive: [8] -0.148 | [9] -0.084 | [3] 0.147 | [4] -0.215 | [5] 0.186 | [10] 0.131 | [6] 0.078 | [7] -0.055

TXNDC2 (UniProt Q86VQ3)
inactive: [8] -0.041 | [9] 0.048 | [4] -0.013 | [5] -0.033 | [10] 0.042 | [6] 0.097 | [7] 0.079

TUT7 (UniProt Q5VYS8)
inactive: [9] 0.044 | [2] 0.15 | [3] 0.071 | [5] 0.445 | [6] 0.149

TSKU (UniProt Q8WUA8)
inactive: [2] 0.024 | [3] 0.187 | [1] 0.083 | [4] -0.058 | [7] 0.039

TUBB8 (UniProt Q3ZCM7)
inactive: [8] 0.003 | [9] 0.036 | [1] 0.149 | [10] 0.019

TTC33 (UniProt Q6PID6)
inactive: [8] -0.103 | [9] 0.009 | [1] 0.012 | [4] 0.013 | [5] -0.008 | [10] -0.152 | [6] -0.014 | [7] 0.054

TXNRD1 isoform 7 (UniProt Q16881)
inactive: [8] -0.202 | [9] 0.019 | [1] -0.364 | [4] -0.194 | [5] 0.263 | [10] 0.065 | [6] -0.085 | [7] 0.062

Pulled one by one from above (2):
UBAP2L (UniProt F8W726)
inactive: [3] -0.039 | [1] -0.05 | [5] -0.006 | [6] -0.021

TUT7 (UniProt Q5VYS8)
inactive: [9] 0.044 | [2] 0.15 | [3] 0.071 | [5] 0.445 | [6] 0.149

Continued:

UBAP2L isoform 1 (UniProt Q14157)
inactive: [8] -0.001 | [9] 0.063 | [3] -0.016 | [1] 0.038 | [4] -0.02 | [5] -0.017 | [10] -0.073 | [6] -0.014 | [7] -0.015

TTC4 (UniProt O95801)
inactive: [8] -0.09 | [9] -0.11 | [3] 0.055 | [1] 0.078 | [4] -0.169 | [5] 0.04 | [10] 0.051 | [6] 0.049 | [7] -0.055

UBE3B (UniProt Q7Z3V4)
inactive: [8] -0.028 | [9] 0.005 | [3] 0.128 | [10] -0.032

TWNK (UniProt Q96RR1)
inactive: [3] 0.164 | [1] 0.031 | [4] 0.184 | [7] -0.001

TUBD1 (UniProt Q9UJT1)
inactive: [9] 0.017

TUSC2 (UniProt O75896)
inactive: [9] 0.003 | [1] -0.136

TXNL4B (UniProt Q9NX01)
inactive: [8] -0.053 | [9] 0.189 | [3] 0.03 | [1] 0.02 | [4] -0.093 | [5] 0.022 | [10] -0.062 | [6] -0.021 | [7] -0.199

TTC14 (UniProt Q96N46)
inactive: [9] -0.114 | [2] 0.038 | [3] 0.052 | [1] -0.232 | [5] -0.035 | [6] 0.051

TUBB8B (UniProt A6NNZ2)
inactive: [9] 0.029 | [2] 0.012 | [3] 0.065 | [1] -0.078 | [4] -0.014 | [5] -0.062 | [6] 0.064 | [7] -0.001

U2AF1L5 (UniProt P0DN76)
inactive: [8] -0.013 | [3] 0.072 | [1] 0.084 | [4] -0.409 | [5] 0.236 | [10] -0.023 | [6] 0.23 | [7] 0.107

TTR (UniProt P02766)
inactive: [1] 0.118

TTC17 isoform 2 (UniProt Q96AE7)
inactive: [1] -0.422

TUBA8 (UniProt Q9NY65)
inactive: [9] 0 | [2] 0.652 | [3] 0.253 | [1] -0.348 | [4] 0.517 | [5] 0.143 | [6] 0.434 | [7] 0.039

TTC21B (UniProt Q7Z4L5)
inactive: [8] 0.004 | [3] 0.121 | [10] -0.074
